From paper PMC11324297, “CDKL3 is a targetable regulator of cell cycle progression in cancers” (The Journal of Clinical Investigation, 2024)
These are yes or no findings as the source states them, for the method shown. For some of these results: In cells and extracts the contact can be indirect. Some results given as binding are weak or reduced against the parent protein; the word gives no strength.

Protein sequences, listed by entry. Tags and fused reporters are not part of them.
UniProt Q8IVW4: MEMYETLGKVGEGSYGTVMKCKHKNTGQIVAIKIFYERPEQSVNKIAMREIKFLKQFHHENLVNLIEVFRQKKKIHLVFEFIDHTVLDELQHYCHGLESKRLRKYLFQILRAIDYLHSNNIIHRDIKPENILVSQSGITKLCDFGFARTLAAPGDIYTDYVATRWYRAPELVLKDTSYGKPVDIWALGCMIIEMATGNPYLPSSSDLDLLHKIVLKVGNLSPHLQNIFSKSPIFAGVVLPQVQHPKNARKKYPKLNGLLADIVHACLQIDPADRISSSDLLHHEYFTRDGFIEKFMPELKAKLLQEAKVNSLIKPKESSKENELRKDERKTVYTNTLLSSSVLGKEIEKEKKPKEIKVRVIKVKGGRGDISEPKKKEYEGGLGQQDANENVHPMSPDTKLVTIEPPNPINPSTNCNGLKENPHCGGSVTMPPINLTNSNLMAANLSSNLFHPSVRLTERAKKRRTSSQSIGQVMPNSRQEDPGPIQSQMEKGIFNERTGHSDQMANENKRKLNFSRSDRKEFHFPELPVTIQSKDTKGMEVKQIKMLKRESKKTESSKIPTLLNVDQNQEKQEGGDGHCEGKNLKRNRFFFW
UniProt P14635: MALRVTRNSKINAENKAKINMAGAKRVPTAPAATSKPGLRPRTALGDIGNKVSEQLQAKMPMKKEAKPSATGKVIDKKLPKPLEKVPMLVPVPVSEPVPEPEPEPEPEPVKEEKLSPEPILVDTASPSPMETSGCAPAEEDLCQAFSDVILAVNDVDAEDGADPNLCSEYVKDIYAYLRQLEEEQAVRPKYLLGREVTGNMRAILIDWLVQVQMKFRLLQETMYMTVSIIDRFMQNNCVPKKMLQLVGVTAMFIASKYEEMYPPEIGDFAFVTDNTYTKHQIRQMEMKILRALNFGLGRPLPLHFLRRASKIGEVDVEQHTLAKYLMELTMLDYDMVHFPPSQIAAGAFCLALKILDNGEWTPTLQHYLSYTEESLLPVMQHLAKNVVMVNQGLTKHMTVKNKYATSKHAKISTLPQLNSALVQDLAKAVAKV
UniProt P24385: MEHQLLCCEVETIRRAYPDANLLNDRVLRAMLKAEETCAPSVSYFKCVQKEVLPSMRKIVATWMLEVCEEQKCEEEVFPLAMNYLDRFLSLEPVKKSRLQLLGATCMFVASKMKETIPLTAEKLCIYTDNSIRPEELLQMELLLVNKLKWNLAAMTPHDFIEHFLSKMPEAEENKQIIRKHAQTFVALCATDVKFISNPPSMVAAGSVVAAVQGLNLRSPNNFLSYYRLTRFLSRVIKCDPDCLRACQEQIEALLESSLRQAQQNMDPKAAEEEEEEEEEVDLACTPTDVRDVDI
UniProt P20248: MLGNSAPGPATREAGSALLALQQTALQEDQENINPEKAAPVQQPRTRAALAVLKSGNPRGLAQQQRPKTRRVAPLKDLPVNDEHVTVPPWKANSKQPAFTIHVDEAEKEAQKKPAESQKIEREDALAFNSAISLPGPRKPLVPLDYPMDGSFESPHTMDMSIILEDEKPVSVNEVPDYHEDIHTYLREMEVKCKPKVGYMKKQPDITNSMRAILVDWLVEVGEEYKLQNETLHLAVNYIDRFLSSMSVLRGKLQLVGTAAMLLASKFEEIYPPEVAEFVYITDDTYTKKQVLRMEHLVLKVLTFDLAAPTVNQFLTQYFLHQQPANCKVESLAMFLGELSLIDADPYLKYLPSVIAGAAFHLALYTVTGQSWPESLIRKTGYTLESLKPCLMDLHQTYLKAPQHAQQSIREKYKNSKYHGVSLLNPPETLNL
UniProt P24864: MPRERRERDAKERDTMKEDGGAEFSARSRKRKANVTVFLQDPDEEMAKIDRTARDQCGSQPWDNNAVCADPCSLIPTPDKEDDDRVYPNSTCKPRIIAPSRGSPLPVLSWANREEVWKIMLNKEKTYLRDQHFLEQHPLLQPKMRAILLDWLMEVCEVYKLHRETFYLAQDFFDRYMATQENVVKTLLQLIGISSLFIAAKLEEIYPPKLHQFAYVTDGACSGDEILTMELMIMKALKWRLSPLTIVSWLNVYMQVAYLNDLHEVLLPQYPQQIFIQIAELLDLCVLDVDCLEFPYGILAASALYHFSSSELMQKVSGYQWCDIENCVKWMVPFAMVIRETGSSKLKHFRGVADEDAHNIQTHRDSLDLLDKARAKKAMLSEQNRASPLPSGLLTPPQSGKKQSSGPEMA

Molecular target: cyclin-dependent kinase-like 3 (CDKL3), endogenous (human (endogenous; cell line of this blot not stated, all lines used are human)) (UniProt Q8IVW4)
Experiment: co-IP; endogenous CDKL3 with endogenous cyclins, Rb and CDK4 (Figure 3B); cell line not shown

binding	Molecule
binds	cyclin B1, endogenous (from UniProt P14635 1-433)
binds	cyclin D1, endogenous (from UniProt P24385 1-295)

The remaining lines, values behind:

Molecule	binding
cyclin A2, endogenous (from UniProt P20248 1-432)	binds
cyclin E1, endogenous (from UniProt P24864 1-410)	binds
retinoblastoma (Rb) protein, endogenous (protein, UniProt P06400 1-928) MPPKTPRKTAATAAAAAAEPPAPPPPPPPEEDPEQDSGPEDLPLVRLEFEETEEPDFTALCQKLKIPDHVRERAWLTWEKVSSVDGVLGGYIQKKKELWGICIFIAAVDLDEMSFTFTELQKNIEISVHKFFNLLKEIDTSTKVDNAMSRLLKKYDVLFALFSKLERTCELIYLTQPSSSISTEINSALVLKVSWITFLLAKGEVLQMEDDLVISFQLMLCVLDYFIKLSPPMLLKEPYKTAVIPINGSPRTPRRGQNRSARIAKQLENDTRIIEVLCKEHECNIDEVKNVYFKNFIPFMNSLGLVTSNGLPEVENLSKRYEEIYLKNKDLDARLFLDHDKTLQTDSIDSFETQRTPRKSNLDEEVNVIPPHTPVRTVMNTIQQLMMILNSASDQPSENLISYFNNCTVNPKESILKRVKDIGYIFKEKFAKAVGQGCVEIGSQRYKLGVRLYYRVMESMLKSEEERLSIQNFSKLLNDNIFHMSLLACALEVVMATYSRSTSQNLDSGTDLSFPWILNVLNLKAFDFYKVIESFIKAEGNLTREMIKHLERCEHRIMESLAWLSDSPLFDLIKQSKDREGPTDHLESACPLNLPLQNNHTAADMYLSPVRSPKKKGSTTRVNSTANAETQATSAFQTQKPLKSTSLSLFYKKVYRLAYLRLNTLCERLLSEHPELEHIIWTLFQHTLQNEYELMRDRHLDQIMMCSMYGICKVKNIDLKFKIIVTAYKDLPHAVQETFKRVLIKEEEYDSIIVFYNSVFMQRLKTNILQYASTRPPTLSPIPHIPRSPYKFPSSPLRIPGGNIYISPLKSPYKISEGLPTPTKMTPRSRILVSIGESFGTSEKFQKINQMVCNSDRVLKRSAEGSNPPKPLKKLRFDIEGSDEADGSKHLPGESKFQQKLAEMTSTRTRMQKQKMNDSMDTSNKEEK	binds

Molecular target: cyclin-dependent kinase-like 3 (CDKL3), exogenous, wild type (UniProt Q8IVW4)
Experiment: co-IP; exogenous CDKL3 with cyclins A2, B1, D1 and E1 (Figure 3A); bait, tags and cell line not shown

binding	Molecule
binds	cyclin A2 (co-IP with exogenous CDKL3) (from UniProt P20248 1-432)
binds	cyclin B1 (co-IP with exogenous CDKL3) (from UniProt P14635 1-433)

Further lines, the molecule ahead of its results:

Molecule	binding
cyclin D1 (co-IP with exogenous CDKL3) (from UniProt P24385 1-295)	binds
cyclin E1 (co-IP with exogenous CDKL3) (from UniProt P24864 1-410)	binds

Molecular target: CDKL3 (in vitro competition assay) (UniProt Q8IVW4)
Experiment: in vitro competition assay; CDKL3 and CDK2 competing for cyclin A2 (Supplemental Figure 2, L and M)

binding	Molecule
binds	cyclin A2 (in vitro competition assay) (from UniProt P20248 1-432)
